This note sets out measurements from publication PMC8470702, “Improved HDAC Inhibition, Stronger Cytotoxic Effect and Higher Selectivity against Leukemias and Lymphomas of Novel, Tricyclic Vorinostat Analogues” (Pharmaceuticals, 2021).

One experiment deals with A549 cells. Description: Cytotoxicity assay (SRB), 72 h. To be noted: Homo sapiens, A549, 72 h, read-out: IC50 A549. The class given is cell-based.
Another experiment has as its system MCF-7 cells. Description: Cytotoxicity assay (SRB), 72 h. The class given is cell-based. To be noted: Homo sapiens, MCF7, 72 h, read-out: IC50 MCF-7.
The test system of the next experiment is Daudi cells. Put plainly: Cytotoxicity assay (MTT), 72 h. The class given is cell-based. To be noted: Homo sapiens, read-out: IC50 Daudi.
The subject of a further experiment is BALB/3T3 cells. Put plainly: Cytotoxicity assay (SRB), 72 h. To be noted: Mus musculus, BALB/3T3, 72 h, read-out: IC50 BALB/3T3.
A further experiment has as its system MV4-11 cells. Description: Cytotoxicity assay (MTT), 72 h. The class given is cell-based. To be noted: Homo sapiens, MV4-11, 72 h, read-out: IC50 MV4-11.

For `O=C(CCCCCCC(=O)Nc1ccccc1)NO` [Vorinostat], the IC50 was determined as 1640 ± 320 nM with A549 cells; 685 ± 60 nM in the experiment on MCF-7 cells; 493 ± 93 nM in the experiment with Daudi cells; 1420 ± 230 nM in the experiment on BALB/3T3 cells; 636 ± 92 nM with MV4-11 cells.
